Source: the supplement of paper PMC3334620
Over roughly 33,000 sequences, “E-score (-0.5 to 0.5)” has its median near -8e-05; the highest 2% begin near 0.23. Some of the results follow.

The sequences below were run against T1, Nrg2 (UniProt P38082) (assay: PBM E-score (8-mer binding enrichment) (E-score (-0.5 to 0.5)); higher = stronger / more preferred TF binding). Settings: protein concentration: 100 nM; construct: GST-full length.
T1 sequence: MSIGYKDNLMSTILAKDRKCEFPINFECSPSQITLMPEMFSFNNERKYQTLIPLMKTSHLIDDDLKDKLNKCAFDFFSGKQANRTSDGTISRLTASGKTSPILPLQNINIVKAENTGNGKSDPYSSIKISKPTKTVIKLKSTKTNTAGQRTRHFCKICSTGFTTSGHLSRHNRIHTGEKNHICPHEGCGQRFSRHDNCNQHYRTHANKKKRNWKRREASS
Summary of the method: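 For each ungapped eight-base word taken together with its reverse complement, the Universal PBM Analysis Suite assigned an E-score. Binding data came from GST-tagged yeast transcription factors, applied at about 100-200 nM, on universal all-10-mer Agilent arrays made double-stranded by primer extension. Fluorescent anti-GST marked bound protein, and scans were normalised with masliner.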

Sequence	PBM E-score
CCTCGCTC	0.105
GACACGAC	0.0549
AATGACTA	-0.0979
AAGATGAT	0.00994
CGACCGCA	0.101
AGCTGTAG	0.132
ATGTGGGG	-0.0299
GGTAGAAC	-0.102
GCCCCCAA	-0.331
ACATTGGT	-0.0379
GAGGTGGC	-0.0836
ACTATAAG	-0.126
TGGATTAA	-0.0443
GGCTTGCA	0.0861
CGCTGACA	0.105
AGCCGAAA	-0.0476
CTCCCGTA	-0.203
GTGCTAAC	-0.0203
AATTTACC	-0.0279
CTCCTATA	-0.335
ATCATATA	0.123
CCACAATC	-0.0997
AGTCCGGC	-0.0322
GAACTGAA	0.108
TAAGGACA	-0.0222

6 entries from above, as comma-separated lines.
Sequence,PBM E-score
CCTCGCTC,0.105
ACATTGGT,-0.0379
ACTATAAG,-0.126
GTGCTAAC,-0.0203
AGTCCGGC,-0.0322
TAAGGACA,-0.0222

(list continues)

Sequence	PBM E-score
GCACTTAC	-0.166
CGTGCCTC	-0.0432
CAGGAAGA	-0.0595
ACGTCTGA	-0.157
ACATAGAG	-0.0997
ACGGACCA	0.179
CTGACACC	-0.15
ACAATGCT	-0.0767
AGTCTACG	-0.204
CAGGGTAG	0.303
AGCAACAC	0.17
GGTCCACC	-0.0817
GTCCAGAC	-0.175
AGCTATCA	0.121
CAGTGACC	0.0395
CCTGCAAA	0.00862
GCTACTGA	0.0376
GAAAGAAA	0.281
GTAGGGTA	0.0976
AACGGTAA	-0.148
ACTCCCGA	-0.229
TACAAGAA	0.051
GTAAGCAC	-0.187
CTAGTCAC	-0.122
CCGGGCTA	-0.199

Sequence	PBM E-score
GTTGACAA	0.0873
CTGCCCAA	0.0866
CACAGGTG	-0.124
ATACGTGC	-0.00522
AACTACCC	0.0912
AAGGTAGA	-0.107
AGATTTAA	0.0464
AATCGTAG	0.206
CGTCCCAC	-0.0209
CTAAGGCA	-0.112
ACACGCGC	-0.0162
CTCGAATA	-0.116
GAGTTGCA	0.136
ATGCACCG	-0.048
AAAGAATT	0.0546
CCGCACAA	-0.00442
GATGGGCA	0.109
TAATGCTA	0.157
ACAGTCCA	0.0427
CAAGTCAA	0.0401
ACAAGAGG	-0.043
GGTTCCTA	-0.0986
CCGCGGCA	0.121
AGCTTGAG	-0.139
CAACCATG	0.0391

Sequence	PBM E-score
GTGGCTCA	-0.159
ATCTCCAG	-0.0261
CGTATGAG	-0.116
ATCTGTGA	-0.0301
AAAGCACC	-0.0744
TAGTAGCA	0.114
AAAATCTG	0.146
CGCTTCCC	-0.108
CGTAAGGA	-0.00216
AGTTCCAG	-0.155
GTGACGTA	-0.0309
AGAGTTCG	0.147
CCTCTCCC	-0.127
ATCGATGA	-0.00663
AGTGCCGC	-0.0723
CCAGTCGC	-0.0486
ACCTACGA	-0.0773
CACTGATA	-0.015
CCTCAGAA	-0.143
CAGGCCTA	-0.0342
GATGGGAA	-0.14
CCTGAAGG	-0.0247
GCACAAAC	0.0641
CCCCAACA	-0.0901
AGGTTAAG	-0.0479

Sequence	PBM E-score
CGCCCCGA	0.172
CTAGCGAA	-0.106
AGATGAAA	0.192
CGGCCTAA	-0.0403
GGCGAGCC	-0.0861
CGGTAACG	-0.269
CAGACGCA	0.0813
CATCGATC	0.0165
CGGTGGTC	-0.0693
AGCCAGGA	-0.0522
ACATTCAT	-0.0109
ACCAGCAG	-0.0904
CACTCTAC	0.126
TCAAACCA	0.134
ATCGGGCA	-0.0438
TGCAACAA	0.00649
GGCTCACC	-0.235
GTATTAGA	0.121
GCGGAGCC	0.0843
ATAAGATG	0.163
CATATGTC	-0.163
ATACCACC	0.151
CATGCTAG	-0.00401
GGTTCTAC	-0.112
GTCGACTA	0.221

Sequence	PBM E-score
CTTGCTCC	-0.0721
CTCTATCC	-0.18
GCTCAAAA	0.0307
AATTCAAG	0.0675
ACTTGGGA	-0.317
TTATTAAA	0.196
CTCATGCA	0.031
GGCATGCC	0.156
GATTGATA	0.181
AGATTCGA	0.0269
AAAGACCT	-0.156
AGTAGCCA	-0.278
ATTTTCTC	0.106
CTGATAGA	-0.122
CATGCTGC	-0.0727
AAGGAAAG	-0.137
CCCTTATA	0.148
AACGGGGC	0.0899
CTCAAGTC	-0.145
AAACGCCA	0.203
ATAGGACC	0.0195
AATATGGT	0.197
AACGTCAA	-0.0866
CTTGTGAA	0.0572
AAGGTGCA	-0.0255

Sequence	PBM E-score
CGTAGTCC	-0.192
AATGTGGA	0.0414
CATTCAGG	-0.0109
ACAGGCAA	0.053
GACGGGTA	-0.182
CATAGGGC	-0.151
ATTGCCAA	-0.0427
ATATGATC	0.214
AGAGCGGC	-0.012
GCCAAAGA	-0.156
GTGAAGCA	0.00894
GAATGCGC	0.0827
CGGTGTGA	0.0562
CCTGGGGA	-0.243
ATGACTAA	-0.0813
ACCGATGC	-0.0652
CAAGAGCG	0.0285
GTAGACAC	-0.0116
CAGGTAAA	0.179
CACACCGA	-0.0459
ACATAACT	0.117
GGTTGACA	0.0273
AGCTTCAG	-0.128
AAGAAAGG	0.0546
AGAAAATG	0.0493

A section from the list above:
Sequence	PBM E-score
ACCGATGC	-0.0652
CAAGAGCG	0.0285

(next part)

Sequence	PBM E-score
GCTGAGCC	-0.0372
CATGCGAG	0.057
ATCGAAGC	-0.107
ACAGGGAT	0.295
ACCAACCA	0.0334
CGTCGTTC	0.185
CAGGGACC	0.4
CCATGGGA	0.0949
AGCCCCAT	-0.0124
CTTCCGTC	-0.0306
CCTGGGTA	-0.159
CATGAGAA	0.136
AAAACCCT	0.209
CCATTCAC	0.0939
CCGGGGCA	-0.0852
GGGCCGAC	-0.0745
CCCATTAC	0.0297
GCTGCTAC	-0.154
GATACTGA	0.0997
CGTTTACA	-0.103
CCATCTAG	0.0291
CTTGCTAA	-0.09
ACTCGGCG	0.00035
ACCAAGAT	0.138
AGTGAAGG	-0.00781

Sequence	PBM E-score
ACCGTATG	-0.0515
CCACCAAA	-0.023
AAGATTCC	0.105
GCTGAACC	0.0119
ACACCCGA	0.0989
GGAGTACC	-0.0929
ATGAAATC	0.0833
CGTGTATC	0.00614
CCAATGAA	-0.132
CCCCCTAC	-0.339
ATATAGTC	0.196
ACCACTGA	-0.12
GGAACCGA	-0.0524
CATTGACA	-0.155
AGTATATG	0.129
AGGGCGTG	-0.203
CGCCCGGC	-0.191
CCCTCGTA	0.154
AACGCCAT	-0.0303
CCAACGCG	0.0766
ATGACCAT	0.0513
AACGACGT	-0.054
CTGCATGA	-0.167
CACGAAGG	-0.00731
CCCCTAAC	0.0474

Sequence	PBM E-score
CCCGGCGA	-0.0244
CATCACAG	-0.0858
CTATCTTC	0.0958
ACGCGAGA	0.112
GCAAACGA	0.0657
AGGACTAT	-0.0895
GAAGCGGA	-0.00883
GAGCAAAC	0.0831
AAGTTTTA	0.121
GTTCGAAA	0.0894
ATAGGTTC	-0.00633
AACCCCCT	-0.311
TACAGTAA	-0.0867
CTTATGAA	-0.0316
CGTTATCA	-0.00641
ATGACGGG	0.12
ATTACATG	0.115
CATGGAAG	0.00638
AAAGTAGC	0.00721
AAGCAATC	0.0696
ACTCTGTA	-0.096
GTGGGGTA	0.164
AGAACTCC	-0.0878
GAGGTTGC	-0.133
AACATGAA	0.0393

3 entries picked at random from the list so far, as already listed:
Sequence	PBM E-score
AGAACTCC	-0.0878
AAGCAATC	0.0696
AAAGTAGC	0.00721

The listing continues.

Sequence	PBM E-score
TGTTCGAA	-0.00763
ACTCGTTG	-0.109
GAAATCGA	0.166
CCCTTCGA	-0.0402
AGCTTCAA	0.0248
TAGTGTCA	0.00857
AGAATCCT	-0.0503
ATTCACCC	0.112
ATTTTAAC	-0.00903
AAGACAGC	0.0123
TCCCGGAA	0.0559
GGAATTAC	0.0713
CGAGAGAA	-0.00082
CGAGGCAC	-0.124
CCGTAATA	0.12
CTCGTTTC	0.0803
TACGTTGA	0.0321
AATAGGAT	0.218
CGCTCTCA	-0.0507
ACTCCGTG	-0.167
ACCTTGTC	-0.194
AGAGTTCC	-0.0256
AGAGTCCG	-0.118
GATATACA	0.0803
ATTACGCA	0.171

Sequence	PBM E-score
CTATGCCC	-0.0683
AAACTGGG	-0.0257
GACCATCC	0.0166
ATTCCATG	0.183
AAACCTCT	0.0073
CGAGGTCC	0.0854
GGGTGATA	0.00288
CTCCTAAG	-0.205
CACAGACA	0.118
CCGATAAA	-0.086
ATGCATTG	0.0223
AGGGGCCG	-0.225
CAGATGGA	0.187
CGCGATAA	0.0712
TGACAGAA	0.0851
ATGAAAAC	0.203
AACAGGTC	-0.119
ACTACACA	0.221
ATGTCTGC	0.0614
GCACTATA	0.125
AACGACCC	0.111
CCCGGAGC	-0.126
GTCCATTA	0.0517
TCGCGTCA	0.0203
AAGCCACA	-0.101

Sequence	PBM E-score
CCCACTCC	-0.13
CATCTCCG	0.193
GCACACCA	-0.145
ATTCTTCC	-0.0599
CCGCCATA	0.133
ACAAGTAC	-1e-05
CACAGCAC	0.0106
AGGACAAG	0.0508
AATTTTCG	-0.0577
GGCTACAC	-0.31
GGATCAAA	0.136
AGGGAGAG	-0.171
GACAGGTA	-0.11
GGATCGCC	0.0218
AAAGACGA	-0.12
GAAGGGAC	0.159
ATGTTTCA	-0.078
CCGGGACC	0.103
AAGACCAT	-0.0952
GAGATCAA	0.155
CTCACAAG	0.0181
CGTATATA	0.0216
CCCCGAAG	0.0536
CCTATAGA	-0.0706
AAGCTGAT	0.184

Sequence	PBM E-score
AGTTCTCC	-0.0976
ATCCATGG	0.0164
GCTTGTAA	-0.112
CTAAATCC	0.0499
CGGGATTC	0.18
CTTTGGTC	0.0813
AACGCTAA	-0.221
CACGTCGA	-0.0111
AGCACTAA	-0.0425
AGGTAGGC	-0.125
CATTGAGG	-0.0408
CCTTGGTA	-0.022
AGTTACAG	0.102
ACACGGTC	-0.125
CACGATAG	0.0957
CCAAATGA	0.122
GATCATTA	0.153
AGCGGAAT	-0.00516
CGAACGCC	-0.0302
